Data from patent publication US8648081B2 (Eli Lilly and Company, priority 2011, dated 2014).
Some of these results come from one statement about several compounds together.

system: nymphal stage American dog ticks (Dermacentor variabilis); assay: In Vivo Rodent Acaricide Test (RAT); conditions: dose of not more than 25 mpk, oral gavage, Sprague-Dawley rats, ticks counted 48 hours post-treatment

Q: With `O=C(N[C@@H]1CCNC1=O)c1sc(C2=NOC(c3cc(Cl)cc(Cl)c3)(C(F)(F)F)C2)c2c1CCCC2` (stereo partly drawn) [Example 32, 3-(5-(3,5-dichlorophenyl)-5-(trifluoromethyl)-4,5-dihydroisoxazol-3-yl)-N—((R)-2-oxopyrrolidin-3-yl)-4,5,6,7-tetrahydrobenzo[c]thiophene-1-carboxamide] as the molecule, how does the “percent efficacy (% reduction in live tick counts)” value read?
A: The value was no less than 50%.

Q: For `O=C(CNC(=O)c1sc(C2=NOC(c3cc(Cl)cc(Cl)c3)(C(F)(F)F)C2)c2c1CCC2)NCC(F)(F)F` (stereo not drawn) [Example 36, 3-(5-(3,5-dichloro-phenyl)-5-(trifluoro-methyl)-4,5-dihydro-isoxazol-3-yl)-N-(2-oxo-2-(2,2,2-trifluoroethylamino)ethyl)-5,6-dihydro-4H-cyclopenta[c] thiophene-1-carboxamide], which “percent efficacy (% reduction in live tick counts)” value is on record?
A: The value was no less than 50%.

Q: `O=C1CCCC(NC(=O)c2sc(C3=NOC(c4cc(Cl)cc(Cl)c4)(C(F)(F)F)C3)c3c2CCCC3)C1` (stereo not drawn) [Example 38, 3-(5-(3,5-dichloro-phenyl)-5-(trifluoro-methyl)-4,5-dihydro-isoxazol-3-yl)-N-(3-oxocyclohexyl)-4,5,6,7-tetrahydrobenzo [c]thiophene-1-carboxamide] was tested. Which “percent efficacy (% reduction in live tick counts)” value did it give?
A: Its value is no less than 50%.

Q: How did the “percent efficacy (% reduction in live tick counts)” value turn out when `O=C(NC1CCS(=O)(=O)CC1)c1sc(C2=NOC(c3cc(Cl)cc(Cl)c3)(C(F)(F)F)C2)c2c1CCCC2` (stereo not drawn) [Example 39, 3-[5-(3,5-Dichloro-phenyl)-5-trifluoro-methyl-4,5-dihydro-isoxazol-3-yl]-4,5,6,7-tetrahydro-benzo [c]thiophene-1-carboxylic acid (1,1-dioxo-hexahydro-116-thiopyran-4-yl)-amide] was run?
A: Its value is no less than 50%.

Q: How did the “percent efficacy (% reduction in live tick counts)” value turn out when `O=C(N[C@@H]1CCNC1=O)c1sc(C2=NOC(c3cc(Cl)cc(Cl)c3)(C(F)(F)F)C2)c2c1CCC2` (stereo partly drawn) [Example 41, 3-(5-(3,5-dichloro-phenyl)-5-(trifluoro-methyl)-4,5-dihydro-isoxazol-3-yl)-N-((R)-2-oxopyrrolidin-3-yl)-5,6-dihydro-4H-cyclopenta[c] thiophene-1-carboxamide] was run?
A: Its value is no less than 50%.

Q: For `N#CCNC(=O)CNC(=O)c1sc(C2=NOC(c3cc(Cl)cc(Cl)c3)(C(F)(F)F)C2)c2c1CCC2` (stereo not drawn) [Example 42, N-(2-(cyanomethyl-amino)-2-oxoethyl)-3-(5-(3,5-dichlorophenyl)-5-(trifluoromethyl)-4,5-dihydroisoxazol-3-yl)-5,6-dihydro-4H-cyclopenta[c]thiophene-1-carboxamide], which “percent efficacy (% reduction in live tick counts)” value is on record?
A: Its value is no less than 50%.

Q: How did the “percent efficacy (% reduction in live tick counts)” value turn out when `C#CCNC(=O)CNC(=O)c1sc(C2=NOC(c3cc(Cl)cc(Cl)c3)(C(F)(F)F)C2)c2c1CCC2` (stereo not drawn) [Example 43, 3-(5-(3,5-dichloro-phenyl)-5-(trifluoro-methyl)-4,5-dihydro-isoxazol-3-yl)-N-(2-oxo-2-(prop-2-ynylamino)ethyl)-5,6-dihydro-4H-cyclopenta[c] thiophene-1-carboxamide] was run?
A: The value was no less than 50%.

Q: Which “percent efficacy (% reduction in live tick counts)” value does the source give for `O=C(N[C@@H]1CCNC1=O)c1sc(C2=NOC(c3cc(Cl)c(Cl)c(Cl)c3)(C(F)(F)F)C2)c2c1CCCC2` (stereo partly drawn) [Example 45, N-((R)-2-oxopyrrolidin-3-yl)-3-(5-(3,4,5-trichlorophenyl)-5-(trifluoromethyl)-4,5-dihydroisoxazol-3-yl)-4,5,6,7-tetrahydrobenzo [c]thiophene-1-carboxamide] here?
A: Its value is no less than 50%.

Q: For `N#CCNC(=O)CNC(=O)c1sc(C2=NOC(c3cc(Cl)c(Cl)c(Cl)c3)(C(F)(F)F)C2)c2c1CCCC2` (stereo not drawn) [Example 46, N-(2-(cyanomethyl-amino)-2-oxoethyl)-3-(5-(3,4,5-trichloro-phenyl)-5-(trifluoro-methyl)-4,5-dihydro-isoxazol-3-yl)-4,5,6,7-tetrahydrobenzo [c]thiophene-1-carboxamide], which “percent efficacy (% reduction in live tick counts)” value is on record?
A: The value was no less than 50%.

Q: With `C#CCNC(=O)CNC(=O)c1sc(C2=NOC(c3cc(Cl)c(Cl)c(Cl)c3)(C(F)(F)F)C2)c2c1CCCC2` (stereo not drawn) [Example 47, N-(2-oxo-2-(prop-2-ynylamino)ethyl)-3-(5-(3,4,5-trichlorophenyl)-5-(trifluoromethyl)-4,5-dihydroisoxazol-3-yl)-4,5,6,7-tetrahydro-benzo[c]thiophene-1-carboxamide] as the molecule, how does the “percent efficacy (% reduction in live tick counts)” value read?
A: The value was no less than 50%.

Q: How did the “percent efficacy (% reduction in live tick counts)” value turn out when `O=C(N[C@@H]1CCNC1=O)c1sc(C2=NOC(c3cc(Cl)c(F)c(Cl)c3)(C(F)(F)F)C2)c2c1CCCC2` (stereo partly drawn) [Example 49, 3-(5-(3,5-dichloro-4-fluorophenyl)-5-(trifluoromethyl)-4,5-dihydroisoxazol-3-yl)-N-((R)-2-oxopyrrolidin-3-yl)-4,5,6,7-tetrahydro-benzo[c]thiophene-1-carboxamide] was run?
A: The value was no less than 50%.

Q: With `N#CCNC(=O)CNC(=O)c1sc(C2=NOC(c3cc(Cl)c(F)c(Cl)c3)(C(F)(F)F)C2)c2c1CCCC2` (stereo not drawn) [Example 50, N-(2-(cyanomethyl-amino)-2-oxoethyl)-3-(5-(3,5-dichloro-4-fluorophenyl)-5-(trifluoromethyl)-4,5-dihydroisoxazol-3-yl)-4,5,6,7-tetrahydrobenzo [c]thiophene-1-carboxamide] as the molecule, how does the “percent efficacy (% reduction in live tick counts)” value read?
A: The value was no less than 50%.

Q: `C#CCNC(=O)CNC(=O)c1sc(C2=NOC(c3cc(Cl)c(F)c(Cl)c3)(C(F)(F)F)C2)c2c1CCCC2` (stereo not drawn) [Example 51, 3-(5-(3,5-dichloro-4-fluorophenyl)-5-(trifluoromethyl)-4,5-dihydroisoxazol-3-yl)-N-(2-oxo-2-(prop-2-ynylamino)ethyl)-4,5,6,7-tetrahydro-benzo[c]thiophene-1-carboxamide] was tested. Which “percent efficacy (% reduction in live tick counts)” value did it give?
A: Its value is no less than 50%.

Q: Which “percent efficacy (% reduction in live tick counts)” value does the source give for `O=C(CNC(=O)c1sc(C2=NOC(c3cc(Cl)c(Cl)c(Cl)c3)(C(F)(F)F)C2)c2c1CCC2)NCC(F)(F)F` (stereo not drawn) [Example 52, N-(2-oxo-2-(2,2,2-trifluoroethylamino)ethyl)-3-(5-(3,4,5-trichlorophenyl)-5-(trifluoromethyl)-4,5-dihydroisoxazol-3-yl)-5,6-dihydro-4H-cyclopenta[c] thiophene-1-carboxamide] here?
A: Its value is no less than 50%.

Q: How did the “percent efficacy (% reduction in live tick counts)” value turn out when `O=C(N[C@@H]1CCNC1=O)c1sc(C2=NOC(c3cc(Cl)c(Cl)c(Cl)c3)(C(F)(F)F)C2)c2c1CCC2` (stereo partly drawn) [Example 53, N-((R)-2-oxopyrrolidin-3-yl)-3-(5-(3,4,5-trichlorophenyl)-5-(trifluoromethyl)-4,5-dihydroisoxazol-3-yl)-5,6-dihydro-4H-cyclopenta[c] thiophene-1-carboxamide] was run?
A: Its value is no less than 50%.

Q: How did the “percent efficacy (% reduction in live tick counts)” value turn out when `N#CCNC(=O)CNC(=O)c1sc(C2=NOC(c3cc(Cl)c(Cl)c(Cl)c3)(C(F)(F)F)C2)c2c1CCC2` (stereo not drawn) [Example 54, N-(2-(cyanomethyl-amino)-2-oxoethyl)-3-(5-(3,4,5-trichloro-phenyl)-5-(trifluoro-methyl)-4,5-dihydro-isoxazol-3-yl)-5,6-dihydro-4H-cyclo-penta[c]thiophene-1-carboxamide] was run?
A: The value was no less than 50%.

Q: `C#CCNC(=O)CNC(=O)c1sc(C2=NOC(c3cc(Cl)c(Cl)c(Cl)c3)(C(F)(F)F)C2)c2c1CCC2` (stereo not drawn) [Example 55, N-(2-oxo-2-(prop-2-ynylamino)ethyl)-3-(5-(3,4,5-trichlorophenyl)-5-(trifluoromethyl)-4,5-dihydroisoxazol-3-yl)-5,6-dihydro-4H-cyclo-penta[c]thiophene-l-carboxamide] was tested. Which “percent efficacy (% reduction in live tick counts)” value did it give?
A: Its value is no less than 50%.

Q: For `O=C(NC1CCN(CC(F)(F)F)C1=O)c1sc(C2=NOC(c3cc(Cl)c(Cl)c(Cl)c3)(C(F)(F)F)C2)c2c1CCC2` (stereo not drawn) [Example 56, N-(2-oxo-1-(2,2,2-trifluoroethyl)pyrrolidin-3-yl)-3-(5-(3,4,5-trichlorophenyl)-5-(trifluoromethyl)-4,5-dihydroisoxazol-3-yl)-5,6-dihydro-4H-cyclopenta[c] thiophene-1-carboxamide], which “percent efficacy (% reduction in live tick counts)” value is on record?
A: The value was no less than 50%.

Q: With `O=C(CNC(=O)c1sc(C2=NOC(c3cc(Cl)c(F)c(Cl)c3)(C(F)(F)F)C2)c2c1CCC2)NCC(F)(F)F` (stereo not drawn) [Example 57, 3-(5-(3,5-dichloro-4-fluorophenyl)-5-(trifluoromethyl)-4,5-dihydroisoxazol-3-yl)-N-(2-oxo-2-(2,2,2-trifluoroethylamino)ethyl)-5,6-dihydro-4H-cyclopenta[c] thiophene-1-carboxamide] as the molecule, how does the “percent efficacy (% reduction in live tick counts)” value read?
A: The value was no less than 50%.

Q: Which “percent efficacy (% reduction in live tick counts)” value does the source give for `O=C(N[C@@H]1CCNC1=O)c1sc(C2=NOC(c3cc(Cl)c(F)c(Cl)c3)(C(F)(F)F)C2)c2c1CCC2` (stereo partly drawn) [Example 58, 3-(5-(3,5-dichloro-4-fluorophenyl)-5-(trifluoromethyl)-4,5-dihydroisoxazol-3-yl)-N-((R)-2-oxopyrrolidin-3-yl)-5,6-dihydro-4H-cyclopenta[c] thiophene-1-carboxamide] here?
A: The value was no less than 50%.

Q: For `N#CCNC(=O)CNC(=O)c1sc(C2=NOC(c3cc(Cl)c(F)c(Cl)c3)(C(F)(F)F)C2)c2c1CCC2` (stereo not drawn) [Example 59, N-(2-(cyanomethyl-amino)-2-oxoethyl)-3-(5-(3,5-dichloro-4-fluorophenyl)-5-(trifluoromethyl)-4,5-dihydroisoxazol-3-yl)-5,6-dihydro-4H-cyclopenta[c] thiophene-1-carboxamide], which “percent efficacy (% reduction in live tick counts)” value is on record?
A: The value was no less than 50%.

Q: Which “percent efficacy (% reduction in live tick counts)” value does the source give for `C#CCNC(=O)CNC(=O)c1sc(C2=NOC(c3cc(Cl)c(F)c(Cl)c3)(C(F)(F)F)C2)c2c1CCC2` (stereo not drawn) [Example 61, 3-(5-(3,5-dichloro-4-fluorophenyl)-5-(trifluoromethyl)-4,5-dihydroisoxazol-3-yl)-N-(2-oxo-2-(prop-2-ynylamino)ethyl)-5,6-dihydro-4H-cyclopenta[c] thiophene-1-carboxamide] here?
A: The value was no less than 50%.

Q: How did the “percent efficacy (% reduction in live tick counts)” value turn out when `O=C(N[C@@H]1CCNC1=O)c1sc(C2=NO[C@@](c3cc(Cl)cc(Cl)c3)(C(F)(F)F)C2)c2c1CCCC2` [Example 87b, 3-((S)-5-(3,5-dichlorophenyl)-5-(trifluoromethyl)-4,5-dihydroisoxazol-3-yl)-N—((R)-2-oxopyrrolidin-3-yl)-4,5,6,7-tetrahydrobenzo[c]thiophene-1-carboxamide] was run?
A: The value was no less than 50%.

Q: `C#CCNC(=O)CNC(=O)c1sc(C2=NOC(c3cc(Cl)cc(Cl)c3)(C(F)(F)F)C2)c2c1CCCC2` (stereo not drawn) [Example 95, 3-(5-(3,5-dichlorophenyl)-5-(trifluoromethyl)-4,5-dihydroisoxazol-3-yl)-N-(2-oxo-2-(prop-2-ynylamino)ethyl)-4,5,6,7-tetrahydrobenzo [c]thiophene-1-carboxamide] was tested. Which “percent efficacy (% reduction in live tick counts)” value did it give?
A: The value was no less than 50%.
